PMC12513491

Protein sequences, listed by entry. Tags and fused reporters are not part of them. Lines headed by an entry give the natural chain unless they say otherwise; changes in a name come on top.
UniProt P98161: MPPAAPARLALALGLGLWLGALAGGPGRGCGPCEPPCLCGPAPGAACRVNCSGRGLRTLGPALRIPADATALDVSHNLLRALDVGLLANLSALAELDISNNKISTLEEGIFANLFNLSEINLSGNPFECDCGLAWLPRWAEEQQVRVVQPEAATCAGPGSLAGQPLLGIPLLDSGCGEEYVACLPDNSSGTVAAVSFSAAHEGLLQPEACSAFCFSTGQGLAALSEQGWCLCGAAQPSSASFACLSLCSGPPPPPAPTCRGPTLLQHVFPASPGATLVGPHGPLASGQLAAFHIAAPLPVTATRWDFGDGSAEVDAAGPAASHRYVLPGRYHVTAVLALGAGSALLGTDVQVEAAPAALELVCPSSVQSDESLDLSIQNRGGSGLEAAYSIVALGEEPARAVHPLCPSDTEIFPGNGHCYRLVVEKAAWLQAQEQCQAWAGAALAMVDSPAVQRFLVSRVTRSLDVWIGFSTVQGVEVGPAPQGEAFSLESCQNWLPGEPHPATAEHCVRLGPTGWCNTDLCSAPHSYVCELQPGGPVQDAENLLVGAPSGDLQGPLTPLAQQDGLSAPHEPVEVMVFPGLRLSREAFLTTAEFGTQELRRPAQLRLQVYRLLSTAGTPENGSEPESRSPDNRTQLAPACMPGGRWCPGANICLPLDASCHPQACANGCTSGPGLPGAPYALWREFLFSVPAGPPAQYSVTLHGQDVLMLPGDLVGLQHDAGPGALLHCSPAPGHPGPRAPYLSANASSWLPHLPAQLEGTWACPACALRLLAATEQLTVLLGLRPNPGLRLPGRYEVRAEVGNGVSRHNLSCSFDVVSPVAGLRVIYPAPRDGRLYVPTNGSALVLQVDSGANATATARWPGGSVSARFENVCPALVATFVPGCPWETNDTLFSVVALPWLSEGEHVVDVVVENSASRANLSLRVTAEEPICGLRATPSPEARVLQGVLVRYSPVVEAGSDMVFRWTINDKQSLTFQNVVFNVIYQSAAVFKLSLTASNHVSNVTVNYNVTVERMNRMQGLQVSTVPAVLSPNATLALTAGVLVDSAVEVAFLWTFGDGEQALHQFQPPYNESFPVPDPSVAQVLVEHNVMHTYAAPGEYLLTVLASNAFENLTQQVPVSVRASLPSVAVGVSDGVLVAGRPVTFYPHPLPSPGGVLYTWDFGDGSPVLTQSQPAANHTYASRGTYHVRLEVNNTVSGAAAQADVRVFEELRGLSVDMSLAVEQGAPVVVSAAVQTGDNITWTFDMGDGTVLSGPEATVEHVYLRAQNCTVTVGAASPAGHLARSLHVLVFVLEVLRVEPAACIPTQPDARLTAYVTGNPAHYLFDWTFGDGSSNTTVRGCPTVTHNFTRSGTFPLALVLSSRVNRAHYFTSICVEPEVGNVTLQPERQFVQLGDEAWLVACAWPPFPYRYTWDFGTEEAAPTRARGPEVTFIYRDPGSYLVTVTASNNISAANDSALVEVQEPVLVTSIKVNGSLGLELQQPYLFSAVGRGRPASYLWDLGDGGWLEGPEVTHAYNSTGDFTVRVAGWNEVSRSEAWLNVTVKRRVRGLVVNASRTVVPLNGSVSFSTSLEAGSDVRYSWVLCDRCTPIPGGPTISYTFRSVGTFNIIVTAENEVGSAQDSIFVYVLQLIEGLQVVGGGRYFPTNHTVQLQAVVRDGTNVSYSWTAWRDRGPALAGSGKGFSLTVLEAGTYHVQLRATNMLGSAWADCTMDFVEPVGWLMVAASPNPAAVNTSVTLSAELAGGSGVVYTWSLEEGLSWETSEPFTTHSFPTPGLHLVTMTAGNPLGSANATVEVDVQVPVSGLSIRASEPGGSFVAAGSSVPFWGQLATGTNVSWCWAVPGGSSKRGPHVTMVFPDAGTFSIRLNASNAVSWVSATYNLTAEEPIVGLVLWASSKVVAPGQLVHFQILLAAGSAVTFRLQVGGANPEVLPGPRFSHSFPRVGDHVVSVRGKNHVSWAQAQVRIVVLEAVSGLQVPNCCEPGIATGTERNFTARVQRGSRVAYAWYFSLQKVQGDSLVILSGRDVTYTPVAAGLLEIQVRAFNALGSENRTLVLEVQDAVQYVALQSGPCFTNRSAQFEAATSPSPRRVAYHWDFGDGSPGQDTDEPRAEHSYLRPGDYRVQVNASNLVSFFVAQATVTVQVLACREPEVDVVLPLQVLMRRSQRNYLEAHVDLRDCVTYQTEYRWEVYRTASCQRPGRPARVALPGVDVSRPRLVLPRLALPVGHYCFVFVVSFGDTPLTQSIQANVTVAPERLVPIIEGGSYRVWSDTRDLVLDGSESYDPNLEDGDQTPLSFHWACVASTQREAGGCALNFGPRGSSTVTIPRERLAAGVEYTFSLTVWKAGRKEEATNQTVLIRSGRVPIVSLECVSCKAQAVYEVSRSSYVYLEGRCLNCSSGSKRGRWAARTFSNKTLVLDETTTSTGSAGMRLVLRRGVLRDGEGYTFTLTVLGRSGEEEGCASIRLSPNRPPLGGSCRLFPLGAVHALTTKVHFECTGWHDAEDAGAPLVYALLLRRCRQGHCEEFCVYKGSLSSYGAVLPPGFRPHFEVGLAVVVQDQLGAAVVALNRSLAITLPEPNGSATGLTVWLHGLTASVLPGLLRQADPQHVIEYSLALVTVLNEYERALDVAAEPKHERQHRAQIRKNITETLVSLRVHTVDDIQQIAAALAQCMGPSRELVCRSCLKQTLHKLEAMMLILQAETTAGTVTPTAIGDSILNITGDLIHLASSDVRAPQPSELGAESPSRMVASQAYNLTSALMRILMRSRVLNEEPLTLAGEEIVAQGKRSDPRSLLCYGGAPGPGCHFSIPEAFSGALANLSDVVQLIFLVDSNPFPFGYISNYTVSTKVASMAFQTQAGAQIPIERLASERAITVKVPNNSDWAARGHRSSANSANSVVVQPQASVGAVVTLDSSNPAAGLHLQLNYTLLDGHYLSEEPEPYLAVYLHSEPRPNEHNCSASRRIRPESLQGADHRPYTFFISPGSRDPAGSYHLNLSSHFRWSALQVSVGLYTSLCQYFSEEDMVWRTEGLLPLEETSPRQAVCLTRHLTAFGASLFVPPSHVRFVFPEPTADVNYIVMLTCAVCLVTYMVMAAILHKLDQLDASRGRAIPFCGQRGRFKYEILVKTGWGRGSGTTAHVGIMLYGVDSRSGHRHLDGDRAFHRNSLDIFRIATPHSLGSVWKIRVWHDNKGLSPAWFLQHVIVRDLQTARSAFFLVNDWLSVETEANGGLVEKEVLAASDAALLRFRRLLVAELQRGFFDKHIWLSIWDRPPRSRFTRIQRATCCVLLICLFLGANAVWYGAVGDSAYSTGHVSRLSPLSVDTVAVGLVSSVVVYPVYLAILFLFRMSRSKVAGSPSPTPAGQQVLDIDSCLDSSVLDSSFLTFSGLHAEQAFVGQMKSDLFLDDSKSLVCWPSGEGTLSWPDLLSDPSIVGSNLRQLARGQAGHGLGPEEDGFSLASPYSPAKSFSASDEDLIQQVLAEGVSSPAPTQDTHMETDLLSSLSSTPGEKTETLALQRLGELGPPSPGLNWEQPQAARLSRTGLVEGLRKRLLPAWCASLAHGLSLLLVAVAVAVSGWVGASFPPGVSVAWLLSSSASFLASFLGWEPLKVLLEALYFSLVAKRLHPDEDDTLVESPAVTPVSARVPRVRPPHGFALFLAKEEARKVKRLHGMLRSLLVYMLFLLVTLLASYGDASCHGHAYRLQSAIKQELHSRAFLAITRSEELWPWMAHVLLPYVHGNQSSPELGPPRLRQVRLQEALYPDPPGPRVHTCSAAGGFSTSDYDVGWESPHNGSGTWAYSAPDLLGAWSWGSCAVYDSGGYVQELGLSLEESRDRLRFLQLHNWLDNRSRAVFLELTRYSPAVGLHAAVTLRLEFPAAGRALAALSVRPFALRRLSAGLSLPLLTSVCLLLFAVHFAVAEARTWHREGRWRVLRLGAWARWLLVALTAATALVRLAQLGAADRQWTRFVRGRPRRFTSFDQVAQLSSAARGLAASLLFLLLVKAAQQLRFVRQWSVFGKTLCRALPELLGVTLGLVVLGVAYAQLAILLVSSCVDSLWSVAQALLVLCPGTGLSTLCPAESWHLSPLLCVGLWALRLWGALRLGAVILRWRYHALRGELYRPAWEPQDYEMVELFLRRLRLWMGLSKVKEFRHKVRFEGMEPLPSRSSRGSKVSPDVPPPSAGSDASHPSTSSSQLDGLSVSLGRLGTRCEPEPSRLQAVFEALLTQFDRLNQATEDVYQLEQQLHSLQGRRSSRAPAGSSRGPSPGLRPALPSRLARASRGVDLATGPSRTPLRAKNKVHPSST

Target: GST-LRR (PC1 leucine-rich repeat fusion protein) (human) (UniProt P98161)
Test: pull-down; mixtures of purified GFP-Wnt9B with GST-LRR or GST alone, pulled down using GST-sepharose beads; probed with anti-GFP or anti-GST antibodies; both purified

B1: purified GFP-Wnt9B (ligand, UniProt O14905 23-357)
chain: SYFGLTGREVLTPFPGLGTAAAPAQGGAHLKQCDLLKLSRRQKQLCRREPGLAETLRDAAHLGLLECQFQFRHERWNCSLEGRMGLLKRGFKETAFLYAVSSAALTHTLARACSAGRMERCTCDDSPGLESRQAWQWGVCGDNLKYSTKFLSNFLGSKRGNKDLRARADAHNTHVGIKAVKSGLRTTCKCHGVSGSCAVRTCWKQLSPFRETGQVLKLRYDSAVKVSSATNEALGRLELWAPARQGSLTKGLAPRSGDLVYMEDSPSFCRPSKYSPGTAGRVCSREASCSSLCCGRGYDTQSRLVAFSCHCQVQWCCYVECQQCVQEELVYTCKH
binding: binds

No constants are given. Whether binding was seen depends on the method and setting. Binding can be weak; no strength is given. Tags and fused reporters may be left off the sequences shown.
